# Source: article PMC4322351
# By UniProt entry, the sequences of proteins in these tests, tags left out.
# UniProt P07293: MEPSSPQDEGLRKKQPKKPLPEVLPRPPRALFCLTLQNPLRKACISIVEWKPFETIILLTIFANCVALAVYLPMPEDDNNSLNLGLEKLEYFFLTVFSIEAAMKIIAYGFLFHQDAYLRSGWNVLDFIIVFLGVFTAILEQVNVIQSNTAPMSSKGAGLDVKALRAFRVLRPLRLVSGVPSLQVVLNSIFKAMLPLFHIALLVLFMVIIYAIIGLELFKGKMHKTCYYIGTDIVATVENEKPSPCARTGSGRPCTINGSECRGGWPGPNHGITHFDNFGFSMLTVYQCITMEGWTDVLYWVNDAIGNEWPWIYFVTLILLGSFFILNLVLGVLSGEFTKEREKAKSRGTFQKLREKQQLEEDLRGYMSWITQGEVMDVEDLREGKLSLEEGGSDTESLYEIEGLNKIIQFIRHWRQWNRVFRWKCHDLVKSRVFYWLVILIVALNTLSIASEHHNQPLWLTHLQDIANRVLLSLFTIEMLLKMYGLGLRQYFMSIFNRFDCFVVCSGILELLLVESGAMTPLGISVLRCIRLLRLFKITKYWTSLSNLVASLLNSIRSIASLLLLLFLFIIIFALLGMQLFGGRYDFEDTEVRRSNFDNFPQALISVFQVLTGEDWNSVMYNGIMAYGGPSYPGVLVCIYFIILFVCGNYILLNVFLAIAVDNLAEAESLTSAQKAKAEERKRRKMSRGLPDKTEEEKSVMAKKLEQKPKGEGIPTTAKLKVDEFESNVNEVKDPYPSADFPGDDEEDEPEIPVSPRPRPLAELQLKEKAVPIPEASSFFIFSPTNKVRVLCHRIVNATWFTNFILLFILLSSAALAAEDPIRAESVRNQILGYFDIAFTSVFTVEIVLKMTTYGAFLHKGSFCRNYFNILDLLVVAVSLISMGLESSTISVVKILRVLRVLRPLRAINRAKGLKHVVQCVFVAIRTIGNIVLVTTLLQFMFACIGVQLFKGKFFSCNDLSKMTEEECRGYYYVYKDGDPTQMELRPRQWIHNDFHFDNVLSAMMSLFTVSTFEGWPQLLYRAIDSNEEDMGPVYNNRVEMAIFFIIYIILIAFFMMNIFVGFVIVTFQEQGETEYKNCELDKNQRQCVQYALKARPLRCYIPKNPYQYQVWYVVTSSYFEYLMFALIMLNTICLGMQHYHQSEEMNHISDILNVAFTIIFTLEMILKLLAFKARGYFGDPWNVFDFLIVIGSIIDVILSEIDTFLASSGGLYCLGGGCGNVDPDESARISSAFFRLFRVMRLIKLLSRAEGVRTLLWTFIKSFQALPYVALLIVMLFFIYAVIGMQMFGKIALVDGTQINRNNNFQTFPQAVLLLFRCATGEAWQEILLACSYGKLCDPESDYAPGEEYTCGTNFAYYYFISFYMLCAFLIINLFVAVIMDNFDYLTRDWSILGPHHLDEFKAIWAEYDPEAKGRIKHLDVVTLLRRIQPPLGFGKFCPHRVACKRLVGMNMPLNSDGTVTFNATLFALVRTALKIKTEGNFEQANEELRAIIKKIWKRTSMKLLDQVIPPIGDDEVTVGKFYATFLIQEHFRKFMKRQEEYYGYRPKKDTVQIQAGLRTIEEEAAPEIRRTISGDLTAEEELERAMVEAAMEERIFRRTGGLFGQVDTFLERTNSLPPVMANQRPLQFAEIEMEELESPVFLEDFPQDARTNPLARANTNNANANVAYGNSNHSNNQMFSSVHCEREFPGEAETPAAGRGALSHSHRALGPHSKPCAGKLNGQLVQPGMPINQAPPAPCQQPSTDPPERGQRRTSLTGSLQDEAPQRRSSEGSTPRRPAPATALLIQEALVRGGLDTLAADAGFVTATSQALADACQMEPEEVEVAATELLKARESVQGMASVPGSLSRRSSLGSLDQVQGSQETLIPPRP
# No constants are given. Whether binding was seen depends on the method and setting. Some entries that bind do so weakly or less than the wild type.
# Biological target: dihydropyridine receptor (DHPR)/L-type Ca2+ channel α1 subunit (Cav1.1), skeletal muscle (rabbit (endogenous in skeletal muscle)) (UniProt P07293)
# Test: native gel or EMSA; native PAGE (3-15% linear gradient polyacrylamide, without SDS and 2-mercaptoethanol, silver stained) of the DHPR complex purified whole from rabbit skeletal muscle; single band of ~450 kDa; subunits identified by SDS-PAGE and Western blotting; both purified
binder,measurement,value
"dihydropyridine receptor (DHPR)/L-type Ca2+ channel γ subunit, skeletal muscle (protein, UniProt P19518 1-222) MSPTEAPKVRVTLFCILVGIVLAMTAVVSDHWAVLSPHMENHNTTCEAAHFGLWRICTKRIALGEDRSCGPITLPGEKNCSYFRHFNPGESSEIFEFTTQKEYSISAAAISVFSLGFLIMGTICALMAFRKKRDYLLRPASMFYVFAGLCLFVSLEVMRQSVKRMIDSEDTVWIEYYYSWSFACACAAFVLLFLGGISLLLFSLPRMPQNPWESCMDAEPEH",binding,binds
